For at least one entry, the source does not settle the construct or the ends of the probe. Weaker means in comparison with the reference protein, sequence or condition of that experiment. Tags and fusion partners may be left off the protein sequences shown. At least one verdict was read from the data and is not stated in words by the source. The direction of at least one scale is not stated here.
Target: TBP (Homo sapiens) (UniProt P20226)
Experiment: smFRET
Conditions: TFIIB 0.2 uM, TFIIA 2 uM, recombinant protein, residues 169-339, protein details: N-terminal His

## AAGCTTTAGGGCGCCTATAAAAGGGGGTTCGGGCG (double strand) [AdMLP promoter in DNA origami force clamp]
3.3 pN
  binding result: binds more weakly
6.0 pN, 20 nM TBP
  binding signal (% high FRET (bent)): 15

## CGGACCAAGATGATTTGATTGAAGGGCTTAAAATAGGTGTTAGAGTAACCCTTGA (double strand) [U6 snRNA promoter in DNA origami force clamp]
6.6 pN, bent fraction reduced at higher force
  binding result: binds more weakly

## CGGACCAAGATGATTTGATTGAAGGGCTTAAAATAGGTGTTAGAGTAACCCTTGA / TCAAGGGTTACTCTCACACCTATTTTAAGCCCTTCAATCAAATCATCTTGGTCCG [U6 linear dsDNA]
Linear dsDNA, E=0.39, label: ATTO 532 and ATTO 647N on S17 strand
  binding result: binds
